Consider 13 molecules from patent EP4843985A1, “TRIAZOLOPYRIMIDINE DERIVATIVE, PREPARATION METHOD THEREFOR AND USE THEREOF” (dated 2026).

Amino acid sequences for entries named in this document (tags omitted). Residues count along the entry.
UniProt Q14191, 517-1238 limits assumed: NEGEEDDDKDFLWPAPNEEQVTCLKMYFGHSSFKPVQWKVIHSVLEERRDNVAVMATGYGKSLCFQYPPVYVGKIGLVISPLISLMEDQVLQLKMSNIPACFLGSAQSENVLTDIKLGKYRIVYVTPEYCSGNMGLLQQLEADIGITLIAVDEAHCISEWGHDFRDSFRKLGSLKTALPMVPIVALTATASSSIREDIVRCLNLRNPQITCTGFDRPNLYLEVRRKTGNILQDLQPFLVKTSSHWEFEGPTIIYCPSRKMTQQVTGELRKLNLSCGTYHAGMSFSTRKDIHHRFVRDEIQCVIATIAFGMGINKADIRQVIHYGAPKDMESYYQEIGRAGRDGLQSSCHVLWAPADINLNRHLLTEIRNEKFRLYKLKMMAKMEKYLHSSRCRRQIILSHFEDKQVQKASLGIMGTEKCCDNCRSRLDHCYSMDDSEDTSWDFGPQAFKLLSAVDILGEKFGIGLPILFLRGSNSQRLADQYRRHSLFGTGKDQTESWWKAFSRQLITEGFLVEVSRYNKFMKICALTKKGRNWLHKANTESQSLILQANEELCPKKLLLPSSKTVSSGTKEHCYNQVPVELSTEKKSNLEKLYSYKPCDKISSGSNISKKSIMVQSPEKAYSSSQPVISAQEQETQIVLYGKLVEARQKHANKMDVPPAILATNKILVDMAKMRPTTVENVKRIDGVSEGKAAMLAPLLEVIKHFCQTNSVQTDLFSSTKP

Broadly, the AUC is concentration integrated over time. Low values mean low exposure, high ones high exposure. The term Cmax denotes the highest concentration seen after dosing.

The structures given here were assigned with low confidence; some may be wrong.

Series [1] has as its target WRN protein (AA N517-P1238) (Homo sapiens, UniProt Q14191). The series is described as follows: In vitro WRN enzymatic activity assay (ADP-Glo ATPase assay). Conditions: read-out: ADP-Glo; 10 nM WRN enzyme, 3 hours pre-incubation at 25°C, ssDNA substrate. (In general: In ADP-Glo the light output rises with the ADP produced.)
For the next series, the system named is SW48 (CRC, MSI). Kind of series: Cell proliferation inhibition assay (CellTiter-Glo), SW48. Conditions: for IC50: read-out: SW48 (CRC, MSI), 120 hours, CellTiter-Glo. (In general: Cellular ATP, detected with luciferase, serves as a proxy for viable cell number.)
The test system of the next series is SW620 (CRC, MSS). Kind of series: Cell proliferation inhibition assay (CellTiter-Glo), SW620. The settings on record: read-out: SW620 (CRC, MSS), 120 hours.
Series [2] in a line: Pharmacokinetics in balb/c nude mice (IV and PO). The settings on record: for F: 10 mg/kg (vs IV 1 mg/kg).
The subject of series [3] is human colorectal cancer SW48 cell subcutaneous xenograft tumor. Kind of series: In vivo pharmacodynamic study in the SW48 xenograft tumor model. The settings on record: for TGI (%) Day21: N=6. The procedure: To evaluate the in vivo efficacy of the compounds in a human colorectal cancer SW48 cell subcutaneous xenograft tumor mouse model.
• Species: Mouse • Strain: NU/NU mouse • Age and body weight: 6-8 weeks of age, weighing 20-24 g • Sex: Female • Quantity: 110 (including remaining mice from grouping) • Supplier: Beijing Vital River Laboratory Animal Technology Co., Ltd. • Animal certificate: 110011241105714757
Human colon cancer SW48 cells (supplier: ECACC; catalog No.: 89012702) were cultured in vitro as a monolayer. The culture conditions were as follows: L-15 medium (supplier: Gibco; catalog No.: 11415-064) supplemented with 2 mM glutamine (supplier: Gibco; catalog No.: 25030-081), 10% fetal bovine serum (supplier: Excell; catalog No.: FSP500), and 1% antibiotics (supplier: Gibco; catalog No.: 15240-062) in a cell culture incubator at 37°C with 5% CO2. Routine passaging was performed by digestion twice a week. When the cell confluence reached 80% to 90% and the cell number met the requirement, the cells were harvested, counted, and inoculated.
A 0.1 mL cell suspension containing 3.0*10^6 SW48 cells (the cells were suspended in medium L15:Matrigel =1:1) was subcutaneously inoculated into the right dorsal flank of each mouse. On Day 7 after inoculation, animals with uniform and appropriate tumor sizes were selected for enrollment, with the mean tumor volume reaching 117 mm^3 (range: 89 mm^3 - 161 mm^3). The animals were assigned to groups according to tumor volume using a randomized block design, and dosing was initiated.
The health status and mortality of the animals were monitored daily. Routine inspections included observing the effects of tumor growth and drug treatment on the animals' daily behavioral performance, such as behavioral activity, food and water intake (visual inspection only), body weight changes (body weight was measured three times per week), appearance signs, or other abnormal conditions. Based on the number of animals in each group, the number of animal deaths and side effects within the group were recorded.
Tumor diameters were measured three times per week using a vernier caliper. The formula for calculating tumor volume was: V = 0.5a × b^2, wherein a and b represent the long and short diameters of the tumor, respectively.
The anti-tumor efficacy of the compounds was evaluated by the tumor growth inhibition rate TGI (%). The TGI (%) was calculated as: TGI (%) = [1 - (mean tumor volume of a treatment group at the end of administration - mean tumor volume of the treatment group at the start of administration) / (mean tumor volume of the vehicle control group at the end of treatment - mean tumor volume of the vehicle control group at the start of treatment)] × 100%.

The nature of series [4]: Pharmacokinetics in dogs (IV and PO). The protocol: Using mice, rats, dogs, and monkeys as test animals, the compounds of the present disclosure were studied after intravenous bolus injection and oral administration. Plasma samples were collected at specific time points, and the concentrations of the compounds in plasma were detected by LC-MS/MS. PK parameters were calculated to reflect the pharmacokinetic behavior of the compounds of the present disclosure in mouse plasma in vivo.
Beagle dogs, male, Beijing Marshall Biotechnology Co.,Ltd.
Administration information for dog: The IV administration dose was 0.5 mg/kg, with an administration volume of 0.5 mL/kg; the IV administration dose was 1 mg/kg, with an administration volume of 0.5 mL/kg; the PO administration dose was 1 mg/kg, with an administration volume of 2 mL/kg; and the vehicle was 10 vol% DMSO/20 vol% Solutol/70 vol% Saline.
After administration to mice, rats, dogs, and monkeys, blood was collected from the vein at 0.0833 (IV), 0.25, 0.5, 1, 2, 4, 8, and 24 hours, with volumes of 0.025, 0.2, 0.5, and 0.6 mL, respectively, placed into EDTA-K2 tubes, and centrifuged at 4°C and 2000 g for 10 min to separate plasma, which was stored at -80°C.
Dog plasma sample processing: • 1) 50 µL of plasma sample was added to 200 µL of acetonitrile for precipitation, vortexed to mix, and then centrifuged for 15 minutes. • 2) The treated supernatant was diluted with water, and the concentration of the test compound was analyzed by LC/MS/MS.
Herein, Cmax represents the maximum plasma concentration; CL represents clearance; Vss represents the volume of distribution at steady state; T1/2 represents the terminal elimination half-life; MRTInf represents the mean residence time; AUC represents the area under the plasma concentration-time curve; and F represents bioavailability. Table 6 Pharmacokinetic parameters of some compounds of the present disclosure after intravenous injection and oral administration in balb/c nude mice

With `CCc1c(N2CCN(C(=O)c3c(O)ccc4ccnn34)CC2)c(=O)n2nc(C3=CCOCC3)nc2n1CC(=O)Nc1ccc(C(F)(F)F)cc1Cl`, in series [1], the IC50 was 2.51 nM.
Consider `[2H]C1([2H])CCC(c2nc3n4c(c(N5CCN(C(=O)c6ncnc(C)c6O)[C@H]6CC[C@@H]65)c(=O)n3n2)C(C)CC4C(=O)Nc2cc(C(F)(F)F)sc2Cl)=CCO1` (some centres unmarked) [296-P2], for which the IC50 in series [1] was 0.98 nM; in the series with SW48 (CRC, MSI), 17 nM; in the series on SW620 (CRC, MSS) it was over 10000 nM.
For the molecule `CCc1c(N2CCN(C(=O)c3ncnc(C)c3O)CC2)c(=O)n2nc(C3=CCC(c4cnc(C)o4)CC3)nc2n1CC(=O)Nc1ccc(C(F)(F)F)cc1Cl` (centres unmarked), in series [1], the IC50 was 1.8 nM.
For the molecule `[2H]C1([2H])CCC(c2nc3n4c(c(N5CCN(C(=O)c6ncnc(C)c6O)[C@H]6CC[C@@H]65)c(=O)n3n2)C(C)CC4C(=O)Nc2cc(C(F)(F)F)sc2Cl)=CCO1` (some centres unmarked) [296-P4], the IC50 was 0.64 nM in series [1]; 8.95 nM in the series on SW48 (CRC, MSI); over 10000 nM in the series on SW620 (CRC, MSS). Besides, the AUC in series [2] (IV, 1 mg/kg) stood at 1767 ng·h/mL; in series [2] (PO, 10 mg/kg) it was 6410 ng·h/mL. In series [2] (IV, 1 mg/kg), the T1/2 is 1.22 h. In series [2] (PO, 10 mg/kg), this molecule showed a Cmax of 3010 ng/mL. In series [2] (PO), this molecule gave an F of 36.0%.
As to `CCc1c(N2CCN(C(=O)c3ncnc(C)c3O)CC2)c(=O)n2nc(C3=CCOCC3)nc2n1CC(=O)Nc1ccc(C(F)(F)F)s1`, the IC50 in series [1] was 20.3 nM.
Consider `[2H]C1([2H])CCC(c2nc3n(CC(=O)Nc4scc(C(F)(F)F)c4C)c(CC)c(N4CCN(C(=O)c5ncnc(C)c5O)[C@H]5CC[C@@H]54)c(=O)n3n2)=CCO1`, for which the IC50 in series [1] was 1.06 nM; in the series with SW48 (CRC, MSI), 10 nM; in the series with SW620 (CRC, MSS) it was over 10000 nM. In addition, the “TGI (%) Day21” value in series [3] (1 mg/kg) turned out to be 33.96%; in series [3] (3 mg/kg), 74.46%; in series [3] (10 mg/kg) it was 101.85%. The “anti-tumor effects (in words)” value in series [3] (10 mg/kg) was “significant anti-tumor effects”. Further, the AUC in series [2] (IV, 1 mg/kg) is 1503, h*ng/mL; in series [2] (PO, 10 mg/kg), 10198 ng·h/mL; in series [4] (IV, 0.5 mg/kg) it was 1.365 µM·h; in series [4] (PO, 1 mg/kg), 3.388 µM·h. Further, the T1/2 in series [2] (IV, 1 mg/kg) amounted to 1.12 h; in series [2] (PO, 10 mg/kg), 1.60 h; in series [4] (IV, 0.5 mg/kg) it was 4.05 h; in series [4] (PO, 1 mg/kg) it was 4.43 h. The Cmax was 4657 ng/mL in series [2] (PO, 10 mg/kg) and 684 nM in series [4] (PO, 1 mg/kg). Besides, the F in series [2] (PO) worked out at 67.9%; in series [4] (PO, 1 mg/kg), 127%.
For the molecule `[2H]C1([2H])CCC(c2nc3n(CC(=O)Nc4scc(C(F)(F)F)c4C)c(CC)c(N4CCN(C(=O)c5ncnc(C)c5O)CC4)c(=O)n3n2)=CCO1`, the IC50 in series [1] was 1.74 nM; in the series with SW48 (CRC, MSI), 32.6 nM; in the series on SW620 (CRC, MSS), over 10000 nM.
Consider `CCc1c(N2CCN(C(=O)c3ncnc(C)c3O)CC2)c(=O)n2nc(C3=CCOCC3)nc2n1CC(=O)Nc1cc(C(F)(F)F)cs1`, for which, in series [1], the IC50 came to 3.42 nM.
Consider `[2H]C1([2H])CCC(c2nc3n(CC(=O)Nc4csc(C(F)(F)F)c4C)c(CC)c(N4CCN(C(=O)c5ncnc(C)c5O)[C@H]5CC[C@@H]54)c(=O)n3n2)=CCO1`, for which the IC50 was 1.17 nM in series [1]; 17.4 nM in the series with SW48 (CRC, MSI); over 10000 nM in the series on SW620 (CRC, MSS).
On to `CCc1c(N2CCN(C(=O)c3ncnc(C)c3O)CC2)c(=O)n2nc(C3=CCN(C(=O)OC4CCC(OC)CC4)CC3)nc2n1CC(=O)Nc1ccc(C(F)(F)F)cc1Cl` (centres unmarked), for which the IC50 in series [1] was 4.6 nM; in the series on SW48 (CRC, MSI), 76.3 nM; in the series with SW620 (CRC, MSS) it was over 10000 nM.
Turning to `[2H]C1([2H])CCC(c2nc3n4c(c(N5CCN(C(=O)c6ncnc(C)c6O)[C@H]6CC[C@@H]65)c(=O)n3n2)C(C)CC4C(=O)Nc2csc(C(F)(F)F)c2C)=CCO1` (some centres unmarked) [322-P4], the IC50 in series [1] was 1.09 nM; with SW48 (CRC, MSI) it was 8.2 nM; with SW620 (CRC, MSS), over 10000 nM. The AUC in series [2] (IV, 1 mg/kg) was determined as 1586 ng·h/mL; in series [2] (PO, 10 mg/kg), 8253 ng·h/mL. Moreover, the T1/2 in series [2] (IV, 1 mg/kg) was found to be 1.37 h. The same molecule had a Cmax in series [2] (PO, 10 mg/kg) of 3257 ng/mL. Moreover, the F in series [2] (PO) was 52.0%.
Consider `[2H]C1([2H])CCC(c2nc3n4c(c(N5CCN(C(=O)c6ncnc(C)c6O)[C@H]6CC[C@@H]65)c(=O)n3n2)C(C)CC4C(=O)Nc2csc(C(F)(F)F)c2C)=CCO1` (some centres unmarked) [322-P3], for which the IC50 in series [1] is 1.02 nM; with SW48 (CRC, MSI), 14.2 nM; in the series with SW620 (CRC, MSS) it was over 10000 nM.
For the molecule `[2H]C1([2H])CCC(c2nc3n4c(c(N5CCN(C(=O)c6ncnc(C)c6O)[C@H]6CC[C@@H]65)c(=O)n3n2)C(C)CC4C(=O)Nc2scc(C(F)(F)F)c2C)=CCO1` (some centres unmarked), in the series on SW48 (CRC, MSI), the “cell inhibitory activity (in words)” value was “maintain excellent cell inhibitory activity” and the IC50 came to 18 nM.
